Source: PubChem BioAssay AID296 (DTP/NCI, 2004)
The list is a part of this screen's results and no random one: it is rich in T/C values a quarter to a half above the control, in often repeated tests (any T/C) and in doses without a T/C. Further doses and runs are listed elsewhere. T/C: endpoint of the treated group in % of that of the vehicle group. Schedule codes are those of the source, read here as Q, the interval in days (D) or hours (H), X, the number of doses. Some T/C values are followed by the survivors on the day toxicity was checked, most often the fifth; where none is given, no animal had died by that day. Some entries give survivors of the animals treated and no T/C: the source holds a T/C of zero for them, seemingly a mark for toxic or unscored doses. Counts of survivors are from the toxicity check (mostly the fifth day) where no day follows; animals may have died later. Some entries were tested several times; their values stand side by side, smallest first.

Test system: MX-1 breast xenograft, nude mice, tumor weight T/C
Assay: NCI In Vivo Anticancer Drug Screen. Data for tumor model Human Mammary Carcinoma MX-1 Xenograft (intrarenal inoculation) in NU/NU Swiss (nude) mice
Conditions: T/C endpoint: mean tumor weight change, higher T/C = larger tumour; for T/C: evaluated on day 11
Summary of the method: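 Antitumour effect measured in vivo against vehicle controls, expressed as T/C.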

[1] = dose: 1.0 mg/kg/injection, schedule: Q01DX010 (sc), vehicle: saline
[2] = dose: 200.0 mg/kg/injection, schedule: Q04DX003 (sc), vehicle: saline

COc1cccc2c1C(=O)c1c(O)c3c(c(O)c1C2=O)C[C@@](O)(/C(C)=N\NC(=O)CO)C[C@@H]3OC1CC(N)C(O)C(C)O1 (stereo partly drawn)
T/C (dose: 25.0 mg/kg/injection, schedule: Q01DX010 (sc), vehicle: saline): 131 % of control | survivor count (dose: 50.0 mg/kg/injection, schedule: Q01DX010 (sc), vehicle: saline): 0 of 3 on day 11 | survivor count (dose: 100.0 mg/kg/injection, schedule: Q01DX010 (sc), vehicle: saline): 0 of 3 on day 11

c1ccc(OCC2CO2)c(OCC2CO2)c1 (stereo not drawn)
survivor count (dose: 600.0 mg/kg/injection, schedule: Q04DX003 (ip), vehicle: saline with Tween-80): 2 of 6 on day 11 | survivor count (dose: 1200.0 mg/kg/injection, schedule: Q04DX003 (ip), vehicle: saline with Tween-80): 0 of 6 on day 11

COc1cccc2c1C(=O)c1c(O)c3c(c(O)c1C2=O)C[C@@](O)(/C(CO)=N/NC(=O)c1ccc(Cl)c(Cl)c1)C[C@@H]3OC1CC(N)C(O)C(C)O1 (stereo partly drawn)
survivor count (dose: 16.0 mg/kg/injection, schedule: Q01DX010 (sc), vehicle: water): 1 of 3 on day 11 | survivor count (dose: 32.0 mg/kg/injection, schedule: Q01DX010 (sc), vehicle: water): 1 of 3 on day 11 | survivor count (dose: 64.0 mg/kg/injection, schedule: Q01DX010 (sc), vehicle: water): 0 of 3 on day 11

CCOC(C)C(/C=N/NC(N)=S)=NNC(N)=S (stereo not drawn)
T/C (dose: 400.0 mg/kg/injection, schedule: Q01DX010 (sc), vehicle: saline with Tween-80): 141 % of control

COC(=O)NC1C(C)OC(OC2C/C=C(/C)C3C=CC4C(OC5CC(OC6CCC(OC7CC(O)C(OC8CCC(O)C(C)O8)C(C)O7)C(C)O6)C(OC(C)=O)C(C)O5)C(C)CC(C)C4C3(C)/C(O)=C3/C(=O)OC4(CC(C=O)=CC(O)C4/C=C\2C)C3=O)CC1(C)[N+](=O)[O-] (stereo not drawn)
T/C (dose: 12.5 mg/kg/injection, schedule: Q04DX003 (sc), vehicle: other): 125 % of control | survivor count (dose: 100.0 mg/kg/injection, schedule: Q04DX003 (sc), vehicle: other): 2 of 6 on day 11

O=C(NO)c1cc(O)c(O)c(O)c1
T/C (dose: 1600.0 mg/kg/injection, schedule: Q04DX003 (sc), vehicle: distilled water + Tween-80): 138 % of control

O=C1C(=O)c2cccnc2-c2ncccc21
T/C (dose: 10.0 mg/kg/injection, schedule: Q04DX003 (sc), vehicle: Klucel (hydroxypropylcellulose) (HPC)): 137 % of control | survivor count (dose: 40.0 mg/kg/injection, schedule: Q04DX003 (sc), vehicle: Klucel (hydroxypropylcellulose) (HPC)): 3 of 6 on day 11 | survivor count (dose: 80.0 mg/kg/injection, schedule: Q04DX003 (sc), vehicle: Klucel (hydroxypropylcellulose) (HPC)): 0 of 6 on day 11

C1CNCOC1
survivor count (dose: 600.0 mg/kg/injection, schedule: Q04DX003 (sc), vehicle: saline): 0 of 6 on day 11 | survivor count (dose: 1200.0 mg/kg/injection, schedule: Q04DX003 (sc), vehicle: saline): 0 of 6 on day 11

NC(=S)c1cn(C2OC(CO)C(O)C2O)c2ncnc(N)c12 (stereo not drawn)
survivor count (dose: 25.0 mg/kg/injection, schedule: Q04DX003 (sc), vehicle: suspension in saline): 0 of 6 on day 11 | survivor count (dose: 50.0 mg/kg/injection, schedule: Q04DX003 (sc), vehicle: suspension in saline): 0 of 6 on day 11

CC(=O)Nc1ccc(C(=O)C=O)cc1
T/C (dose: 50.0 mg/kg/injection, schedule: Q01DX010 (sc), vehicle: saline with Tween-80): 144 % of control

COC1=C(N)C(=O)c2nc(-c3nc(C(=O)O)c(C)c(-c4ccc(OC)c(OC)c4O)c3N)ccc2C1=O
survivor count [1]: 0 of 3 on day 11 and 0 of 6 on day 11

CCC(C(=O)O)C(=O)O.[NH-]CC1CCCC[N-]1.[Pt+2]
survivor count (dose: 600.0 mg/kg/injection, schedule: Q04DX003 (sc), vehicle: suspension in saline): 0 of 6 on day 11 | survivor count (dose: 800.0 mg/kg/injection, schedule: Q04DX003 (sc), vehicle: saline): 0 of 6 on day 11

CCCCCCCC(=O)OCC(=O)[C@]1(O)Cc2c(O)c3c(c(O)c2[C@@H](OC2CC(N)C(O)C(C)O2)C1)C(=O)c1c(OC)cccc1C3=O (stereo partly drawn)
survivor count (dose: 16.0 mg/kg/injection, schedule: Q01DX010 (sc), vehicle: suspension in saline): 0 of 3 on day 11

C/C=C(\C)c1cc(=O)c2c(C)cc3c(c2o1)C(=O)c1c(O)c(C2CC(C)(N(C)C)C(O)C(C)O2)cc(C2CC(N(C)C)C(O)C(C)O2)c1C3=O (stereo not drawn)
survivor count (dose: 16.0 mg/kg/injection, schedule: Q04DX003 (sc), vehicle: saline): 0 of 6 on day 11

OC1CCCC2CCCNC12 (stereo not drawn)
survivor count (dose: 150.0 mg/kg/injection, schedule: Q04DX003 (sc), vehicle: saline with Tween-80): 1 of 6 on day 11 | survivor count (dose: 300.0 mg/kg/injection, schedule: Q04DX003 (sc), vehicle: saline with Tween-80): 0 of 6 on day 11

NC(=O)c1ccc[n+](Cc2c(Cl)cccc2Cl)c1
survivor count [2]: 0 of 5 on day 11 | survivor count (dose: 400.0 mg/kg/injection, schedule: Q04DX003 (sc), vehicle: saline): 0 of 6 on day 11

CCC1=C[C@H]2CN(CCc3c([nH]c4ccccc34)[C@@](C(=O)OC)(c3cc4c(cc3OC)N(C)[C@H]3[C@@](O)(C(=O)NC)[C@H](OC(C)=O)[C@]5(CC)C=CCN6CC[C@]43[C@@H]65)C2)C1
survivor count (dose: 4.0 mg/kg/injection, schedule: Q04DX003 (sc), vehicle: water): 0 of 6 on day 11 | survivor count (dose: 8.0 mg/kg/injection, schedule: Q04DX003 (sc), vehicle: water): 0 of 6 on day 11

COc1cc2c(c(OC)c1OC)-c1ccc(OC)c(=O)cc1[C@@H](NC(C)=O)CC2
survivor count [1]: 1 of 3 on day 11 | survivor count (dose: 2.0 mg/kg/injection, schedule: Q01DX010 (sc), vehicle: saline): 0 of 3 on day 11

COC(=O)C12OCC34C(CC5C(C)=CC(=O)C(O)C5(C)C3C(O)C1O)OC(=O)C(OC(=O)CC(C)C)C24 (stereo not drawn)
survivor count (dose: 6.0 mg/kg/injection, schedule: Q04DX003 (sc), vehicle: saline + alcohol): 1 of 6 on day 11 | survivor count (dose: 12.0 mg/kg/injection, schedule: Q04DX003 (sc), vehicle: saline + alcohol): 0 of 6 on day 11

ClCc1ccc2ccccc2n1
T/C (dose: 600.0 mg/kg/injection, schedule: Q04DX003 (sc), vehicle: saline with Tween-80): 142 % of control [4 of 6 alive on day 11]

c1cc(-c2cc3ccc(C4=NCCN4)cc3[nH]2)ccc1C1=NCCN1
survivor count [2]: 0 of 6 on day 11

COc1ccc(CC2C(=O)NC(C)C(=O)N(C)C3C(=O)N(C)C(Cc4ccc(O)c(c4)Oc4ccc(cc4)C3O)C(=O)NC(C)C(=O)NC(C)C(=O)N2C)cc1 (stereo not drawn)
survivor count (dose: 4.0 mg/kg/injection, schedule: Q01DX010 (sc), vehicle: saline with Tween-80): 0 of 3 on day 11

NC(=O)/C=C/c1c[nH]c2nccnc12
T/C (dose: 100.0 mg/kg/injection, schedule: Q04DX003 (sc), vehicle: water): 138 % of control | survivor count (dose: 200.0 mg/kg/injection, schedule: Q04DX003 (sc), vehicle: water): 3 of 6 on day 11

Cc1ncc(CNC(=O)N(CCCl)N=O)c(N)n1
survivor count (dose: 37.5 mg/kg/injection, schedule: Q04DX003 (sc), vehicle: saline): 3 of 6 on day 11 | survivor count (dose: 75.0 mg/kg/injection, schedule: Q04DX003 (sc), vehicle: saline): 0 of 6 on day 11

Nc1nc2c(ncn2C2OC(CO)C(O)C2O)c(=O)[nH]1.Nc1nc2c(ncn2C2OC(CO)C(O)C2O)c(=O)[nH]1.[NH2-].[NH2-].[Pt+2] (stereo not drawn)
survivor count (dose: 2400.0 mg/kg/injection, schedule: Q04DX003 (sc), vehicle: water): 0 of 6 on day 11
